This test has as its target Rts1-HKMT-myc (S. cerevisiae) (UniProt P38903). Nature of the test: proximity labelling.

Amino acid sequences for entries named in this document (tags omitted).
UniProt P38903: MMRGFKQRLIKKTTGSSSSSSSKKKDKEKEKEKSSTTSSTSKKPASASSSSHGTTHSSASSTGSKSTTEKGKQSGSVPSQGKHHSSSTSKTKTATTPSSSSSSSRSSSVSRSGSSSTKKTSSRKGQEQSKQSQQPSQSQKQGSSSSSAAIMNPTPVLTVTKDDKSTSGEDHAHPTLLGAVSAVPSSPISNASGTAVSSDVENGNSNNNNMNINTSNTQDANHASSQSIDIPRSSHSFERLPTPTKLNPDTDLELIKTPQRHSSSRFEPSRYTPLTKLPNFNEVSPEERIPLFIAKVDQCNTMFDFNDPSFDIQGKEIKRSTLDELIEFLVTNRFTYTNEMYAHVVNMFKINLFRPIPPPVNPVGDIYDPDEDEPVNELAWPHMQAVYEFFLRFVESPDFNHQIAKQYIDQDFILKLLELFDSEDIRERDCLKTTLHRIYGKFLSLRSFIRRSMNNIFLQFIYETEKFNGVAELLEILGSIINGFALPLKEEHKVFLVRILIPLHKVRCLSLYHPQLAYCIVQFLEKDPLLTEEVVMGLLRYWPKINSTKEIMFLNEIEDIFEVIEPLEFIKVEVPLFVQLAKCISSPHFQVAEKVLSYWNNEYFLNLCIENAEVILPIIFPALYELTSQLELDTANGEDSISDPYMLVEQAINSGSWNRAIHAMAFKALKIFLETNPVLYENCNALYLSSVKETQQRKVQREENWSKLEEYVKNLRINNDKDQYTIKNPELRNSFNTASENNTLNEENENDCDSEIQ

Results are given in words; binding and its absence hold for the method and conditions named. In cells and extracts the contact can be indirect. These calls come from enrichment with a bait or labelling near it, and not all partners need be listed. No binding means not detected with the bait. Sequences can lack the tags named with a protein.

B1: Rck2-3A (L550A/L553A/E555A)-protA-H3-HA (protein, UniProt P38623 1-610)
chain: MLKIKALFSKKKPDQADLSQESKKPFKGKTRSSGTNNKDVSQITSSPKKSFQDKNIVQYPSVVADDHHMKSLTDELVTTIDSDSSPSDNITTENVETVTSVPAIDVHESSEGQLSSDPLISDESLSEQSEIISDIQDDSTDDDNMEDEIPEKSFLEQKELIGYKLINKIGEGAFSKVFRAIPAKNSSNEFLTKNYKAVAIKVIKKADLSSINGDHRKKDKGKDSTKTSSRDQVLKEVALHKTVSAGCSQIVAFIDFQETDSYYYIIQELLTGGEIFGEIVRLTYFSEDLSRHVIKQLALAVKHMHSLGVVHRDIKPENLLFEPIEFTRSIKPKLRKSDDPQTKADEGIFTPGVGGGGIGIVKLADFGLSKQIFSKNTKTPCGTVGYTAPEVVKDEHYSMKVDMWGIGCVLYTMLCGFPPFYDEKIDTLTEKISRGEYTFLKPWWDEISAGAKNAVAKLLELEPSKRYDIDQFLDDPWLNTFDCLPKEGESSQKKAGTSERRHPHKKQFQLFQRDSSLLFSPAAVAMRDAFDIGNAVKRTEEDRMGTRGGAGSAAADEELEDSYSGAQGDEQLEQNMFQLTLDTSTILQRRKKVQENDVGPTIPISATIRE
B1: the binding entry is “no binding”.

These data come from article doi:10.1101/2020.05.30.124925.
